# Patent publication USRE49128E1, “Hydroxyl purine compounds and applications thereof” (GUANGDONG RAYNOVENT BIOTECH CO., LTD., priority 2014, dated 2022)
# Some results were stated once for a whole list of compounds, not compound by compound.
# Test system: TNF-α
# Assay: Effect of compounds on TNF-α in LPS-induced blood of rats in vitro (ELISA)
# Type: cell-based, Sprague Dawley rats
# Settings: compound 100 μM; LPS-induced rat blood, 5 hours; plasma TNF-α by ELISA
# Procedure: Experimental objective: Detect the effects of compounds on TNF-α in LPS-induced blood of rats in vitro, evaluate the inhibitory effect of the compounds on TNF-α in LPS-induced blood of rats.
# Sprague Dawley rats (male, 210-260 g, 8-10 weeks old, Shanghai Slack);
# Rat TNF-alpha Quantikine ELISA Kit (R&D, #SRTA00).
# Test compounds solutions with a concentration of 1 mM were prepared, 40 μL of which (the final concentration of the compound was 100 μM) was respectively added to 48-hole cell culture plates. Rats were anesthetized with isoflurane, heart blood was collected (heparin was used to anticoagulation). The blood was added to the 48-hole plates holding the test compounds, 320 μL per hole. The 48-hole plates were placed in a cell incubator and incubated for 30 minutes, 40 μL LPS solution was added (100 μg/mL), mixed and placed in the incubator and continued to incubate. the 48-hole plates was taken out after 5 hours, the blood samples were transferred to 1.5 mL centrifuge tubes, centrifuged in a centrifuge (4,500 rpm, 4° C., 5 minutes), the upper plasma were separated, frozen after storage and stored in a refrigerator at −80° C. The levels of TNF-α in plasma samples were measured using the R & D ELISA kit according to the kit instructions the nest day.
smiles,measurement,value
"Cn1cnc2c1c(=O)n(CC1CCC(O)(C(F)(F)F)CC1)c(=O)n2C (single isomer, unassigned) [Embodiment 12 isomer 2]",TNF-α inhibition ratio,+/+ (60% ≤ “+” < 80%)
